No constants are given. Whether binding was seen depends on the method and setting. Some entries that bind do so weakly or less than the wild type.
Molecular target: proteolipid protein (PLP) (mouse (endogenous in forebrain)) (UniProt P60202)
Test: non-reducing SDS-PAGE and western blot

binding: binds
B1: proteolipid protein (PLP) (protein, UniProt P60202 1-277)
chain: MGLLECCARCLVGAPFASLVATGLCFFGVALFCGCGHEALTGTEKLIETYFSKNYQDYEYLINVIHAFQYVIYGTASFFFLYGALLLAEGFYTTGAVRQIFGDYKTTICGKGLSATVTGGQKGRGSRGQHQAHSLERVCHCLGKWLGHPDKFVGITYALTVVWLLVFACSAVPVYIYFNTWTTCQSIAFPSKTSASIGSLCADARMYGVLPWNAFPGKVCGSNLLSICKTAEFQMTFHLFIAAFVGAAATLVSLLTFMIAATYNFAVLKLMGRGTKF
